Reference: US20030064921A1 (The Regents of the University of California, priority 1999, published 2003)

Assay: general procedure: Fmoc solid-phase peptide synthesis; Rink Amide-MBHA resin (Novabiochem); DIC (symmetric anhydride)
Conditions: oxidative folding step, as determined by HPLC

Ac-CVRLHESCLGQQVPCCDPAATCYCRFFNAFCYCR-NH2 (N-terminal acetyl, C-terminal amide; synthetic AGRP fragment)
oxidative folding yield: greater than 80%
